{
  "sequences": {"note": "Sequences of proteins named here, by UniProt entry; tags and fusion partners are left off. A change or cut given only in a name is not applied to a line headed by its entry. A line that says so, or that is headed by a name, gives the form on record, which may keep a tag or linker.", "full-length YAP (YAP2) of mouse cerebellum (mouse (endogenous in cerebellum)) (P46938-2, form named)": "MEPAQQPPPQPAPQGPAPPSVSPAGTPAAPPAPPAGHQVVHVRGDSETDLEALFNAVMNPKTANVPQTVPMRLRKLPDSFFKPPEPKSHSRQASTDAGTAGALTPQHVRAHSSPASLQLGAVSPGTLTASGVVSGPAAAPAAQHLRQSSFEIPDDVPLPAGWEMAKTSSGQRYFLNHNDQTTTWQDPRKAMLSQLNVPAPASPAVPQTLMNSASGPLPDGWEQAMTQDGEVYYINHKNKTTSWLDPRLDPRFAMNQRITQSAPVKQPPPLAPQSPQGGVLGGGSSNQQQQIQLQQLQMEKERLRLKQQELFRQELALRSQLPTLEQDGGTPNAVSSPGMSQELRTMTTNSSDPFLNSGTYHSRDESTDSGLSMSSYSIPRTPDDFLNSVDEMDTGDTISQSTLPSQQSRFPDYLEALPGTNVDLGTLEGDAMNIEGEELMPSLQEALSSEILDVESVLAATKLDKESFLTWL", "UniProt Q92993": "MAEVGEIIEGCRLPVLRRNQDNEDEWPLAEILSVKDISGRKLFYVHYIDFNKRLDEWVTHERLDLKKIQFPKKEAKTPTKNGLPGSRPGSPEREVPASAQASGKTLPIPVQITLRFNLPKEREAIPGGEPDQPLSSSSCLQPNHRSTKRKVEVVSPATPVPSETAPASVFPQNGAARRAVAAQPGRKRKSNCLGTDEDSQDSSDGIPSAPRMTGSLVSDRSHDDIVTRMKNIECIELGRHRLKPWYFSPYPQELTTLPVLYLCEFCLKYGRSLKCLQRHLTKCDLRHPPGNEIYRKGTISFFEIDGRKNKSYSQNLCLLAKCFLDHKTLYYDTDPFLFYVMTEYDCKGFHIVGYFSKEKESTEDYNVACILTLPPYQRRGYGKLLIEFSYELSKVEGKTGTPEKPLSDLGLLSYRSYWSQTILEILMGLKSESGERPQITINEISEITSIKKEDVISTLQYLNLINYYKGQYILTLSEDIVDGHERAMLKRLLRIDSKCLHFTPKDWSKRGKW"},
  "source": "paper PMC5709507",
  "molecules": {"B1": {"name": "endogenous RORα of mouse cerebellar neurons and cerebellum (protein, UniProt P51448 1-523)", "chain": "MESAPAAPDPAASEPGSSGSEAAAGSRETPLTQDTGRKSEAPGAGRRQSYASSSRGISVTKKTHTSQIEIIPCKICGDKSSGIHYGVITCEGCKGFFRRSQQSNATYSCPRQKNCLIDRTSRNRCQHCRLQKCLAVGMSRDAVKFGRMSKKQRDSLYAEVQKHRMQQQQRDHQQQPGEAEPLTPTYNISANGLTELHDDLSTYMDGHTPEGSKADSAVSSFYLDIQPSPDQSGLDINGIKPEPICDYTPASGFFPYCSFTNGETSPTVSMAELEHLAQNISKSHLETCQYLREELQQITWQTFLQEEIENYQNKQREVMWQLCAIKITEAIQYVVEFAKRIDGFMELCQNDQIVLLKAGSLEVVFIRMCRAFDSQNNTVYFDGKYASPDVFKSLGCEDFISFVFEFGKSLCSMHLTEDEIALFSAFVLMSADRSWLQEKVKIEKLQQKIQLALQHVLQKNHREDGILTKLICKVSTLRALCGRHTEKLMAFKAIYPDIVRLHFPPLYKELFTSEFEPAMQIDG"}, "B2": {"name": "human RORα, wild type (RORα-pCIneo) (protein, UniProt P35398-2 1-523)", "chain": "MESAPAAPDPAASEPGSSGADAAAGSRETPLNQESARKSEPPAPVRRQSYSSTSRGISVTKKTHTSQIEIIPCKICGDKSSGIHYGVITCEGCKGFFRRSQQSNATYSCPRQKNCLIDRTSRNRCQHCRLQKCLAVGMSRDAVKFGRMSKKQRDSLYAEVQKHRMQQQQRDHQQQPGEAEPLTPTYNISANGLTELHDDLSNYIDGHTPEGSKADSAVSSFYLDIQPSPDQSGLDINGIKPEPICDYTPASGFFPYCSFTNGETSPTVSMAELEHLAQNISKSHLETCQYLREELQQITWQTFLQEEIENYQNKQREVMWQLCAIKITEAIQYVVEFAKRIDGFMELCQNDQIVLLKAGSLEVVFIRMCRAFDSQNNTVYFDGKYASPDVFKSLGCEDFISFVFEFGKSLCSMHLTEDEIALFSAFVLMSADRSWLQEKVKIEKLQQKIQLALQHVLQKNHREDGILTKLICKVSTLRALCGRHTEKLMAFKAIYPDIVRLHFPPLYKELFTSEFEPAMQIDG"}, "B3": {"name": "normal Atxn1 of mouse cerebellum (protein, UniProt P54254 1-791)", "chain": "MKSNQERSNECLPPKKREIPATSRPSEEKATALPSDNHCVEGVAWLPSTPGIRGHGGGRHGSAGTSGEHGLQGMGLHKALSAGLDYSPPSAPRSVPTANTLPTVYPPPQSGTPVSPVQYAHLSHTFQFIGSSQYSGPYAGFIPSQLISPSGNPVTSAVASAAGATTPSQRSQLEAYSTLLANMGSLSQAPGHKVEPPPQQHLSRAAGLVNPGSPPPPTQQNQYIHISSSPQSSGRATSPPPIPVHLHPHQTMIPHTLTLGPSSQVVVQYSDAGGHFVPRESTKKAESSRLQQAMQAKEVLNGEMEKSRRYGASSSVELSLGKASSKSVPHPYESRHVVVHPSPADYSSRDTSGVRGSVMVLPNSSTPSADLEAQQTTHREASPSTLNDKSGLHLGKPGHRSYALSPHTVIQTTHSASEPLPVGLPATAFYAGTQPPVIGYLSGQQQAITYAGGLPQHLVIPGNQPLLIPVGSPDMDTPGAASAIVTSSPQFAAVPHTFVTTALPKSENFNPEALVTQAAYPAMVQAQIHLPVVQSVASPTTASPTLPPYFMKGSIIQLANGELKKVEDLKTEDFIQSAEISNDLKIDSSTVERIEESHSPGVAVIQFAVGEHRAQVSVEVLVEYPFFVFGQGWSSCCPERTSQLFDLPCSKLSVGDVCISLTLKNLKNGSVKKGQPVDPASVLLKQAKTDSLAGSRHRYAEQENGINQGSAQVLSENGELKFPEKIGLPAAPFLSKIEPSKPTATRKRRWSAPETRKLEKSEDEPPLTLPKPSLIPQEVKICIEGRSNVGK"}},
  "key": {"[1]": {"biological_target": "T1, GST-RORα (a.a. 424–523) (human) (UniProt P35398)", "T1 sequence": "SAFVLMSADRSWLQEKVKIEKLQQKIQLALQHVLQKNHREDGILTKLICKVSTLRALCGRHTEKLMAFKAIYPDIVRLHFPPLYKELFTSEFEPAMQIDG", "assay": "pull-down; GST-RORα (a.a. 424-523), His-Tip60 and His-YAP mixed in PBS with 0.1% Tween-20 and protease inhibitors, 12 h at 4 °C; GST-RORα pulled down with glutathione-Sepharose; rising amounts of His-Tip60 or His-YAP; both purified"}, "[2]": {"biological_target": "T2, human RORα, wild type (RORα-pCIneo) (human) (UniProt P35398)", "T2 sequence": "B2 chain", "assay": "co-IP; COS-7 cells transiently overexpressing RORα, 2 days after transfection; lysis and washes in TNE buffer (10 mM Tris-HCl pH 7.5, 150 mM NaCl, 1 mM EDTA, 1% Nonidet P-40); Protein G-Sepharose"}, "[3]": {"biological_target": "T2, human RORα, wild type (RORα-pCIneo) (human)", "assay": "co-IP; mouse primary cerebellar neurons transfected with FLAG-YAP2, FLAG-YAPdeltaC or YAP2 WW mutants, with endogenous or transfected RORα; 2 days after transfection; precipitation with anti-FLAG and anti-RORα antibodies"}, "[4]": {"biological_target": "T3, endogenous RORα of mouse cerebellar neurons and cerebellum (mouse (endogenous in primary cerebellar neurons and cerebellum)) (UniProt P51448)", "T3 sequence": "B1 chain", "assay": "co-IP; cerebellar tissue of C57BL/6, Atxn1-KI (No Dox) and Group I mice at P7 and P21; reciprocal precipitation of YAP and RORα"}, "[5]": {"biological_target": "full-length YAP (YAP2) of mouse cerebellum (mouse (endogenous in cerebellum)) (UniProt P46938)", "assay": "co-IP; cerebellar tissue of C57BL/6, Atxn1-KI (No Dox) and Group I mice at P7 and P21; reciprocal precipitation of YAP and RORα"}, "[6]": {"biological_target": "FLAG-YAP2 (full-length YAP) (not stated (human or rat cDNA cloned)) (UniProt P46937)", "assay": "co-IP; mouse primary cerebellar neurons transfected with FLAG-YAP2, FLAG-YAPdeltaC or YAP2 WW mutants, with endogenous or transfected RORα; 2 days after transfection; precipitation with anti-FLAG and anti-RORα antibodies"}, "[7]": {"biological_target": "FLAG-YAP2 (full-length YAP) (not stated (human or rat cDNA cloned)) (UniProt P46937)", "assay": "co-IP; COS-7 cells transiently overexpressing RORα, 2 days after transfection; lysis and washes in TNE buffer (10 mM Tris-HCl pH 7.5, 150 mM NaCl, 1 mM EDTA, 1% Nonidet P-40); Protein G-Sepharose"}},
  "note": "No constants are given. Whether binding was seen depends on the method and setting. For some of these results: Binding seen in cells or lysates may run through a third protein. Some results given as binding are weak or reduced against the parent protein; the word gives no strength. For some of these results: Sequences can lack the tags named with a protein.",
  "data": [
    {"molecule": "His-Tip60 (from UniProt Q92993 1-513)", "values": [
      {"measurement": "binding", "setting": "[1]", "value": "binds"}
    ]},
    {"molecule": "His-YAP (full-length YAP2) (from UniProt P46937-2 1-488)", "values": [
      {"measurement": "binding", "setting": "[1]", "value": "binds"}
    ]},
    {"molecule": "FLAG-YAP2 (full-length YAP) (from UniProt P46937-2 1-488)", "values": [
      {"measurement": "binding", "setting": "[2]", "value": "binds"},
      {"measurement": "binding", "setting": "[3]", "value": "binds"}
    ]},
    {"molecule": "full-length YAP (YAP2) of mouse cerebellum (from UniProt P46938-2 1-472)", "values": [
      {"measurement": "binding", "setting": "[4]", "value": "binds"}
    ]},
    {"molecule": "B1", "values": [
      {"measurement": "binding", "setting": "[5]", "value": "binds"},
      {"measurement": "binding", "setting": "[6]", "value": "binds"}
    ]},
    {"molecule": "B2", "values": [
      {"measurement": "binding", "setting": "[7]", "value": "binds"},
      {"measurement": "binding", "setting": "[6]", "value": "binds"}
    ]},
    {"molecule": "B3", "values": [
      {"measurement": "binding", "setting": "[5]", "value": "binds"}
    ]}
  ]
}
